No constants are given. Whether binding was seen depends on the method and setting. Binding seen in cells or lysates may run through a third protein. Some entries that bind do so weakly or less than the wild type.
Target: PINK1 (UniProt Q9BXM7)
Experiment: co-IP; Co-IP Kit (BersinBio, Bes3011): cells lysed, incubated with the target antibody overnight, Protein A/G-MagBeads, washed, eluted, detected by WB; bait antibody and cell line not stated

Protein sequences, listed by entry. Tags and fused reporters are not part of them. Residues count along the entry.
UniProt Q9BXM7, residues 78-581: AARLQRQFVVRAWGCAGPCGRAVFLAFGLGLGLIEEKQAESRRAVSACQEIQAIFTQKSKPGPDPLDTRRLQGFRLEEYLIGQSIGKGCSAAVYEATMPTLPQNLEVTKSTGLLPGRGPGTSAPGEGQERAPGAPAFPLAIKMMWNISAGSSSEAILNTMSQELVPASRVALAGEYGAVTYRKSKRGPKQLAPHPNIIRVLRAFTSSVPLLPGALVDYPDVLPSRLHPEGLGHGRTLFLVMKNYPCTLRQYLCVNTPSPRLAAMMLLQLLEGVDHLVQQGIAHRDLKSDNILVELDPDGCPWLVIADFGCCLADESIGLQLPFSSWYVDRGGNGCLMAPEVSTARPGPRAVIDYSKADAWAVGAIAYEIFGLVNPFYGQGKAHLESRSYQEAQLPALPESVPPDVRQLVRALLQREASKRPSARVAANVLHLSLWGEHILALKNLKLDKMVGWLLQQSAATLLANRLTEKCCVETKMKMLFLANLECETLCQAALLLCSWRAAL
UniProt P11142: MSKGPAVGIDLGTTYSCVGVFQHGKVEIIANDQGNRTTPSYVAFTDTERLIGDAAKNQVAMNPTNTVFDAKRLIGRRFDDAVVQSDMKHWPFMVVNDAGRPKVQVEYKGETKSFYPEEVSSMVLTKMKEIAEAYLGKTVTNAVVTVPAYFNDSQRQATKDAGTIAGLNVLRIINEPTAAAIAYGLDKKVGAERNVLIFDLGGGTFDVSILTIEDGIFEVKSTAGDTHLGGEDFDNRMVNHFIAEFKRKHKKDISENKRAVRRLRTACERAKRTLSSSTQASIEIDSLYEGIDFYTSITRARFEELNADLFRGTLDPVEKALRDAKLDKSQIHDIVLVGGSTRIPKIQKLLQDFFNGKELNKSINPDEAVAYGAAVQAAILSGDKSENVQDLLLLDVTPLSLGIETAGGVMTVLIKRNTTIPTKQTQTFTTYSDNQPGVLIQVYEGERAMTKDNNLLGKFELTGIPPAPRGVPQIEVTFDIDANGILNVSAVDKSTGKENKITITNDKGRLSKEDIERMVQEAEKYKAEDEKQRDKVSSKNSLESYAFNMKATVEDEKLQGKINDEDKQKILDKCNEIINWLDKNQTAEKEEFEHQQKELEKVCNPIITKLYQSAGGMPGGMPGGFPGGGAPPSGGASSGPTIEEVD

binding: binds
Substance: HSPA8 protein (from UniProt P11142 1-646)

— article PMC12257754
